Data: PubChem BioAssay AID504834 (National Center for Advancing Translational Sciences (NCATS), 2011)
Among all 320,000 compounds or so, about 22,000 (6.9%) were called active. Inconclusive results, whose numbers are uncertain, are shown with a selection of clear calls. Calls follow the shape of the dose curve; as a rule, active = well fitted inhibition curve with a large enough effect; inconclusive = small, poorly fitted or top-dose-only effect, or another doubt; inactive = no such curve, though single readings can be large or run the other way. Potencies beside an inconclusive call are fits to weak or partial responses and may not hold up.

Test: Primary qHTS for delayed death inhibitors of the malarial parasite plastid, 96 hour incubation
Conditions: P. falciparum luciferase reporter growth; series mostly up to 28.7 µM
Summary of the method: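 Two parasite generations (96 h, 37 C, 5% CO2) of compound exposure in infected erythrocytes (0.05% parasitemia, 2% hematocrit). Luciferase-reporter P. falciparum; decreased luminescence indicates inhibited growth, aimed at apicoplast-acting delayed death.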
Potency is read from the fitted curve at half-maximal effect.

| Structure (SMILES) | Potency |
| --- | --- |
| Cc1cc(OCC(=O)N2C[C@H]3C[C@@H](C2)c2cccc(=O)n2C3)c2c(C)c(C)c(=O)oc2c1 | inactive |
| CC(C)(C)C(O)(CC#CCN1CCCC1)c1ccccc1 (configuration not stated) | inactive |
| CC(C)(O)C(=O)Nc1ccc([N+](=O)[O-])c(C(F)(F)F)c1 | inconclusive: 1.04 µM [inhibitor, partial curve] |
| Cc1nc(C(=O)NC2CCCCC2)sc1C1(C)CC(c2cccc([N+](=O)[O-])c2)=NO1 (configuration not stated) | inconclusive: 11.7 µM [inhibitor, partial curve] |
| CC(=O)c1ccc(N(C(=O)c2ccco2)C(C(=O)NC2CCCC2)c2ccc(N3CCOCC3)cc2)cc1 (configuration not stated) | inconclusive: 11.7 µM [inhibitor, single point] |
| CCc1nnc(NC(=O)CSCc2cc(=O)n3nc(C)sc3n2)s1 | inconclusive: 0.415 µM [inhibitor, partial curve, poor fit] |
| Cc1ccc(C(=O)Nc2ccccc2C(=O)N2CC3(C)CC2CC(C)(C)C3)cc1 (configuration not stated) | inconclusive: 6.57 µM [inhibitor, partial curve, poor fit] |
| CCc1ccc(NC(=O)CCNS(=O)(=O)c2cccc3nonc23)cc1 | inconclusive: 9.28 µM [inhibitor, partial curve, poor fit] |
| O=C(CCc1ccc(Oc2cc([N+](=O)[O-])cc([N+](=O)[O-])c2)cc1)N1CCCCCC1 | inconclusive: 2.62 µM [inhibitor, full curve] |
| Cc1ccc(C(=O)c2sc3nsc(C)c3c2N)cc1 | inactive |
| Cc1nc2sc3c(c2c(=O)o1)CC(C)(C)OC3 | active: 14.7 µM |
| Cc1ccc(C2CC(=O)Nc3c2ccc2ccccc32)cc1[N+](=O)[O-] (configuration not stated) | inconclusive: 18.5 µM [inhibitor, single point] |
| O=C1N(Cc2cccc(Cl)c2)C[C@@H]2C[C@@H](c3cccn3-c3nccs3)N3CCC[C@@]123 | inconclusive: 2.62 µM [inhibitor, full curve, poor fit] |
| O=c1[nH]c(=O)n(C2CCCCC2)c(O)c1/C=N/N1CCCCC1c1cccnc1 (configuration not stated) | inconclusive: 4.65 µM [inhibitor, partial curve, poor fit] |
| CC(C)c1ccc(C2(C)NC(=O)N(CC(=O)NCC3COc4ccccc4O3)C2=O)cc1 (configuration not stated) | inconclusive: 7.38 µM [inhibitor, partial curve, poor fit] |
| CC1CN(c2ccc(C(F)(F)F)cc2[N+](=O)[O-])CCN1S(C)(=O)=O (configuration not stated) | inactive |
| CCC(=NCCN1CCNCC1)C1=C(O)CC(C)(C)CC1=O | inconclusive: 8.28 µM [inhibitor, partial curve, poor fit] |

Structures from the list above that contain a nitro group on carbon (five):

| Structure (SMILES) | Potency |
| --- | --- |
| CC(C)(O)C(=O)Nc1ccc([N+](=O)[O-])c(C(F)(F)F)c1 | inconclusive: 1.04 µM [inhibitor, partial curve] |
| Cc1nc(C(=O)NC2CCCCC2)sc1C1(C)CC(c2cccc([N+](=O)[O-])c2)=NO1 (configuration not stated) | inconclusive: 11.7 µM [inhibitor, partial curve] |
| O=C(CCc1ccc(Oc2cc([N+](=O)[O-])cc([N+](=O)[O-])c2)cc1)N1CCCCCC1 | inconclusive: 2.62 µM [inhibitor, full curve] |
| Cc1ccc(C2CC(=O)Nc3c2ccc2ccccc32)cc1[N+](=O)[O-] (configuration not stated) | inconclusive: 18.5 µM [inhibitor, single point] |
| CC1CN(c2ccc(C(F)(F)F)cc2[N+](=O)[O-])CCN1S(C)(=O)=O (configuration not stated) | inactive |
